Experimental data taken from PubChem BioAssay (Tox21).
This list was built around the results that the source calls inconclusive (neither active nor inactive); the mix of calls is not that of the screen. Potencies beside an inconclusive call are fits to weak or partial responses and may not hold up. Active and inactive are the calls of the source. Calls follow the shape of the dose curve; as a rule, active = well fitted curve in the direction sought with a large enough effect in the repeat runs; inconclusive = weak or mixed curves; inactive = no such curve, though single readings can be large; an effect the other way counts as inactive or inconclusive.

Test: A CellTox Green Cytotoxicity Assay to monitor cytotoxicity in HEK293 cells - 24 hour (AID 1224875); also: nearly all actives have a fitted effect of over 45% in size; as to activity change: % is scaled to controls: 0 for no effect and ±100 for the full control effect
Conditions: CellTox Green fluorescence; series mostly up to 76.8 µM; activity change: at the top concentration
Outline: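 Cells (HEK293, 600/well) and dye reagent are dispensed together. After 5 h at 37 C, 23 nL compound is pinned in. Plates stay at 37 C for 40 h with fluorescence read at 0h, 8h, 16h, 24h, 32h and 40h.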
Potency is read from the fitted curve at half-maximal effect.

Compound | Potency | activity change
c1ccc(CCc2ccccc2)cc1 | inconclusive: 24.5 µM [activator, partial curve] | 
CCCSSCCC |  | inactive: -2.3%
CC(C)=CC(=O)C=C(C)C |  | inactive: 6.46%

Test: A CellTox Green Cytotoxicity Assay to monitor cytotoxicity in HepG2 cells - 16 hour (AID 1224876); also: nearly all actives have a fitted effect of over 45% in size; as to cytotoxicity increase: % is scaled to controls: 0 for no effect and ±100 for the full control effect
Conditions: CellTox Green fluorescence; series mostly up to 76.8 µM; cytotoxicity increase: at the top concentration
Outline: (§1)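 Cells and non-lytic dye reagent are dispensed together (600 HepG2 cells/well) and incubated 5 h before DMSO compound transfer. Kinetic fluorescence is then recorded in the same wells during 40 h at 37 C.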

Compound | cytotoxicity increase | Potency
C[C@@]12CCC[C@H]1[C@@H]1CC[C@H]3C[C@@H](O)CC[C@]3(C)[C@H]1CC2 | inactive: -0.211% [at 35.3 µM] | 
Nc1c(Cl)cc(Cl)cc1[N+](=O)[O-] |  | inconclusive: 61.6 µM [activator, single point]
CCCOC(=O)C(C)O (stereo not given) | inactive: -0.332% | 
[Cl][Nd]([Cl])[Cl] | inactive: -19.9% | 
c1ccc(CCc2ccccc2)cc1 |  | inconclusive: 54.9 µM [activator, single point]
CCCCCCC(C)(C)S |  | inactive

Test: A CellTox Green Cytotoxicity Assay to monitor cytotoxicity in HepG2 cells - 24 hour (AID 1224878); also: nearly all actives have a fitted effect of over 45% in size
Conditions: CellTox Green fluorescence; series mostly up to 76.8 µM; cytotoxicity: at the top concentration
Outline: as §1

Compound | Potency
Nc1c(Cl)cc(Cl)cc1[N+](=O)[O-] | inconclusive: 61.6 µM [activator, single point]
O=Cc1ccc(O)c(O)c1O | inconclusive: 16.9 µM [activator, partial curve]
CCCCNS(=O)(=O)c1ccc(C)cc1 | active: 6.16 µM
CCOC(=O)/C=C\C(=O)OCC | inconclusive: 61.7 µM [activator, partial curve, poor fit]
c1ccc(CCc2ccccc2)cc1 | inconclusive: 54.9 µM [activator, single point]

Test: A CellTox Green Cytotoxicity Assay to monitor cytotoxicity in HepG2 cells - 40 hour (AID 1224879); also: nearly all actives have a fitted effect of over 40% in size; as to cytotoxicity increase: % is scaled to controls: 0 for no effect and ±100 for the full control effect
Conditions: CellTox Green fluorescence; series mostly up to 76.8 µM; cytotoxicity increase: at the top concentration
Outline: as §1

Compound | cytotoxicity increase | Potency
CC(C)(C)OC(=O)N1C[C@@H](F)C[C@H]1C(=O)O | inactive: 0.143% | 
Nc1c(Cl)cc(Cl)cc1[N+](=O)[O-] |  | inconclusive: 61.6 µM [activator, single point]
C=C(C)[C@H]1CC=C(C)C(=O)C1 |  | inactive
O=Cc1ccc(O)c(O)c1O |  | inconclusive: 19 µM [activator, partial curve]
CCCCNS(=O)(=O)c1ccc(C)cc1 |  | inconclusive: 3.89 µM [activator, full curve, poor fit]
c1ccc(CCc2ccccc2)cc1 |  | inconclusive: 54.9 µM [activator, single point]
CCCN1CCCC[C@H]1C(=O)Nc1c(C)cccc1C |  | inconclusive: 15.1 µM [activator, single point]
CCOC(=O)[C@H](CCc1ccccc1)N[C@@H](C)C(=O)N1C(=O)N(C)C[C@H]1C(=O)O | inactive: 2.55% [at 35.3 µM] | 

Test: qHTS RealTime-Glo MT Cell Viability Assay in HEK293 cells - 0 hour (AID 1224880); also: nearly all actives have a fitted effect of over 45% in size; as to activity change, negative = cytotoxicity: top concentration of the series differs between compounds; % is scaled to controls: 0 for no effect and ±100 for the full control effect
Conditions: RealTime-Glo luminescence; series mostly up to 76.8 µM; activity change, negative = cytotoxicity: at the top concentration
Outline: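 Real-time viability in HEK293: signal arises when living cells convert a prosubstrate for NanoLuc in the medium, so luminescence tracks viable cell number. Compound (23 nL, DMSO) added 5 h post-seeding; kinetic reads at 0–40 h, 37 C.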

Compound | Potency | activity change, negative = cytotoxicity
COC(=O)C1=C(C)NC(C)=C(C(=O)OCC(C)=O)C1c1ccccc1[N+](=O)[O-] (stereo not given) | inconclusive: 15.1 µM [falling, partial curve, poor fit] | 
CCCCCCC(C)(C)S | inactive | 
CCCN1CCCC[C@H]1C(=O)Nc1c(C)cccc1C |  | inactive: 12% [at 35.3 µM]
